This is one part of the list. Repeats are few or missing, and single values can be far off.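 Imaging used 1,536-well plates; nuclei positive for cleaved PARP by antibody were divided by total DNA-stained nuclei to yield the apoptosis fraction. Doses for screening kept most cells viable, and cell lines differ markedly in resting and induced cleaved-PARP levels.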

What all share (assay): cleaved PARP positive nuclei fraction relative to DMSO control; melanoma cells; higher = more apoptosis
Details in all cases: library dose: low library concentration; 72 h

Assay [1] deals with MZ2-MEL.
The test system of assay [2] is MeWo.
The test system of assay [3] is RPMI7951.
For assay [4], the system named is RVH-421.
Assay [5] concerns SkMel28.
Assay [6] relates to SkMel2.
Assay [7] has as its system SkMel30.
For assay [8], the system named is UACC62.
Assay [9] has as its system SkMel5.
The subject of assay [10] is UACC257.

On to `Nc1cccc2c1CN(C1CCC(=O)NC1=O)C2=O` (stereo unspecified) [lenalidomide] + Cn1nnc2c(C(N)=O)ncn2c1=O [temozolomide] (first compound 1 µM, partner dose 2 µM), for which the “cleaved PARP positive nuclei fraction” value in [1] came to 60.6%; in assay [2], 106%; in assay [3], 84.9%; in assay [4], 61.3%; in [5], 171%; in [6], 66.4%. Besides, the “cleaved PARP positive nuclei fraction” value was 51.9% in assay [7] and 136% in assay [8].
`COc1cc(Nc2ncc(F)c(Nc3ccc4c(n3)NC(=O)C(C)(C)O4)n2)cc(OC)c1OC` [Tamatinib] + Cn1cncc1[C@@](N)(c1ccc(Cl)cc1)c1ccc2c(c1)c(-c1cccc(Cl)c1)cc(=O)n2C [tipifarnib] (first compound 0.4 µM, partner dose 0.01 µM): the “cleaved PARP positive nuclei fraction” value in assay [1] turned out to be 116%; in [2] it was 128%; in assay [3], 140%; in assay [4], 164%; in [5], 162%; in assay [6], 193%. Further, the “cleaved PARP positive nuclei fraction” value is 99.9% in assay [7], 549% in [9], 2.17% in assay [10] and 277% in [8].
For `Cc1ccc(NC(=O)c2cccc(N(C)C)c2)cc1NC(=O)c1ccc(O)cc1` + CN(C)S(=O)(=O)c1ccc2c(c1)/C(=C/c1cc3c([nH]1)CCCC3)C(=O)N2 [SU6656] (first compound 2 µM, partner dose 0.4 µM), the “cleaved PARP positive nuclei fraction” value in [1] stood at 56.3%; in assay [2], 108%; in assay [3], 95.1%; in [4] it was 147%; in [5], 269%; in assay [6], 50%. In addition, the “cleaved PARP positive nuclei fraction” value in assay [7] was determined as 111%; in assay [9] it was 42.5%; in [10], 89.6%; in assay [8] it was 67%.
For `Nc1cccc2c1CN(C1CCC(=O)NC1=O)C2=O` (stereo unspecified) [lenalidomide] + C[C@]1(c2nc3c(C(N)=O)cccc3[nH]2)CCCN1 [Veliparib] (first compound 1 µM, partner dose 1.4 µM), the “cleaved PARP positive nuclei fraction” value in assay [1] amounted to 76.7%; in assay [2], 82.6%; in assay [3], 117%; in assay [4], 61.4%; in assay [5], 97.3%; in assay [6], 103%. Also, the entries for the “cleaved PARP positive nuclei fraction” value in [7] and in assay [8] were 109% and 191%, respectively.
For the molecule `OCc1c[nH]c2ccccc12` [Indole-3-carbinol] + Cn1nnc2c(C(N)=O)ncn2c1=O [temozolomide] (first compound 0.8 µM, partner dose 2 µM), the “cleaved PARP positive nuclei fraction” value in assay [1] came to 34.6%; in assay [2], 68.1%; in assay [3], 116%; in [4], 26.1%; in [5], 243%; in assay [6], 43.5%. Further, the “cleaved PARP positive nuclei fraction” value was 96.5% in [7] and 116% in assay [8].
Regarding `CC(=O)c1c(C)c2cnc(Nc3ccc(N4CCNCC4)cn3)nc2n(C2CCCC2)c1=O` [palbociclib] + Cn1cc(/C=C2\C(=O)Nc3cccnc32)c2ccccc21 [GW441756] (first compound 0.04 µM, partner dose 0.4 µM), the “cleaved PARP positive nuclei fraction” value in assay [1] is 54.3%; in [2] it was 34.9%; in [3] it was 89.5%; in [4], 448%; in assay [5] it was 95.4%; in assay [6], 29.2%. For the same molecule, the “cleaved PARP positive nuclei fraction” value amounted to 60.3% in assay [7], 213% in assay [9], 587% in [10] and 88.6% in assay [8].
Consider `CC(=O)c1c(C)c2cnc(Nc3ccc(N4CCNCC4)cn3)nc2n(C2CCCC2)c1=O` [palbociclib] + COc1ccc(Cl)c(Nc2nc3ccccc3nc2NS(=O)(=O)c2cccc(NC(=O)C(C)(C)N)c2)c1 [XL147] (first compound 0.04 µM, partner dose 0.8 µM), for which the “cleaved PARP positive nuclei fraction” value in [1] amounted to 79.5%; in assay [2], 73.4%; in [3] it was 62%; in assay [4], 126%; in [5], 82.3%; in assay [6], 47.3%. The “cleaved PARP positive nuclei fraction” value is 23.1% in assay [7] and 127% in [8].
On to `C=CCNC1=C2C[C@@H](C)C[C@H](OC)[C@H](O)[C@@H](C)/C=C(\C)[C@H](OC(N)=O)[C@@H](OC)/C=C\C=C(/C)C(=O)NC(=CC1=O)C2=O` [Tanespimycin] + CC(=O)c1c(C)c2cnc(Nc3ccc(N4CCNCC4)cn3)nc2n(C2CCCC2)c1=O [palbociclib] (first compound 0.002 µM, partner dose 0.04 µM), for which the “cleaved PARP positive nuclei fraction” value stood at 77% in assay [1]; 63.7% in assay [2]; 50.3% in [3]; 77.5% in assay [4]; 143% in assay [5]; 43.5% in assay [6]. The “cleaved PARP positive nuclei fraction” value worked out at 111% in assay [7] and 170% in assay [8].
As to `COCC[n+]1c2c(n(Cc3cnccn3)c1C)C(=O)c1ccccc1C2=O` + Nc1cccc2c1CN(C1CCC(=O)NC1=O)C2=O [lenalidomide] (first compound 0.0004 µM, partner dose 1 µM), the “cleaved PARP positive nuclei fraction” value in [1] was 90.9%; in [2], 76%; in assay [3], 70.6%; in assay [4], 59%; in assay [5], 75.3%; in assay [6] it was 146%. Moreover, the results for the “cleaved PARP positive nuclei fraction” value in assay [7] and in [8] were 49.6% and 55.6%, respectively.
`Clc1ccc(Nc2nnc(Cc3ccncc3)c3ccccc23)cc1` [vatalanib] + Cc1cc([N+](=O)[O-])ccc1NS(=O)(=O)c1cc(Cl)ccc1Cl [FH535] (first compound 2 µM, partner dose 1 µM): the “cleaved PARP positive nuclei fraction” value in [1] was 43.2%; in [2], 58.9%; in [3], 91.8%; in [4] it was 252%; in assay [5], 149%; in [6], 13.7%. The “cleaved PARP positive nuclei fraction” value came out at 30% in assay [7], 106% in assay [9], 159% in assay [10] and 75.6% in assay [8].
Consider `Clc1ccc(Nc2nnc(Cc3ccncc3)c3ccccc23)cc1` [vatalanib] + Cn1nnc2c(C(N)=O)ncn2c1=O [temozolomide] (first compound 2 µM, partner dose 2 µM), for which the “cleaved PARP positive nuclei fraction” value worked out at 99.1% in [1]; 187% in assay [2]; 71.1% in assay [3]; 185% in [4]; 99.4% in assay [5]; 52.5% in assay [6]. Moreover, the “cleaved PARP positive nuclei fraction” value is 115% in assay [7] and 155% in assay [8].

The values are drawn from the supplement of paper PMC4604168 (melanoma cell lines).
